This is one part of the list.
Experiment: blockers of MT1-MMP proenzyme processing, primary screen, HT1080 RFP-PRO-GFP cells, GFP/RFP fluorescence (AID 651647)
Details: GFP/RFP ratio fluorescence, overnight, RFP expression control read, at 20 µM
Procedure, shortened: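 Material – HT1080 RFP-PRO-GFP cells · Control set – DMSO wells and RFP-L50D-GFP cells · Incubation – overnight cell settling, then overnight compound exposure, 37 °C, 5% CO2 · Compound dosing – single-point 20 µM compound, 1% DMSO · Read-out – GFP/RFP fluorescence ratio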

Row | Compound | RFP signal change
1 | O=[As](O)(c1ccc(O)cc1)c1ccccc1O | 1.01%
2 | COc1cc(C(=O)NCC2(N3CCOCC3)CCCCC2)ccc1OCC(C)C | -0.567%
3 | O=[N+]([O-])c1ccc(-c2cc([N+](=O)[O-])c(O)c([N+](=O)[O-])c2)cc1 | -2.27%
4 | O=[N+]([O-])c1cc(Oc2ccc([N+](=O)[O-])cc2C(F)(F)F)cc([N+](=O)[O-])c1 | -2.36%
5 | COc1ccc(N/C(=N/P(=O)(N2CCOCC2)N2CCOCC2)N2CCOCC2)cc1 | 0.991%
6 | COc1ccccc1-c1ccccn1.O=[N+]([O-])c1cc([N+](=O)[O-])c(O)c([N+](=O)[O-])c1 | 6.52%
7 | O=P1(N(CCCl)CCCl)Nc2ccccc2N1 | -1.34%
8 | O=P1(N(CCCl)CCCl)OCCCN1CCCl (stereo not given) | 4.17%
9 | COc1ccc2nc(NP(=O)(c3ccccc3)c3ccccc3)sc2c1 | 2.49%
10 | COc1cc(I)ccc1[As](=O)(O)O | 8.96%
11 | Cc1c2c(nc3ccccc13)SC(C(Cl)Cl)C2 (stereo not given) | -3.38%
12 | O=C(OC1CN2CCC1CC2)C12CC3CC(CC(C3)C1)C2 (stereo not given) | 4.68%
13 | Cc1cc(=O)[nH]c(N[N+](=O)[O-])n1 | 4.6%
14 | CCN(CC)CCCOC(=O)C(O)(c1ccccc1)c1ccccc1 | 1.47%
15 | CCOP(=O)(Nc1cccc2ccccc12)OCC | 2.96%
16 | CP(=O)(Nc1cccc(Br)c1)Oc1ccccc1 (stereo not given) | -4.61%
17 | Cc1cc(C)cc(OP(C)(=O)Nc2ccccn2)c1 (stereo not given) | -0.348%
18 | Cc1ccc(NCCc2c([N+](=O)[O-])cc([N+](=O)[O-])cc2[N+](=O)[O-])cc1 | 16.4%
19 | Nc1cccc2c([As](=O)(O)O)cccc12 | 14.2%
20 | CCCOP(=S)(Nc1nc(N)cc(=O)[nH]1)OCCC | 0.149%
21 | Cc1ccc(C)c(NP(C)(=O)Oc2ccccc2)c1 (stereo not given) | -1.76%
22 | O=[As](O)(c1cccc(O)c1)c1cccc(O)c1 | 3.43%

Row | Compound | RFP signal change
23 | Cc1cccc(OCC(=O)OC2CN3CCC2CC3)c1 (stereo not given) | 0.652%
24 | Cc1cc(C)cc(OP(C)(=O)Nc2ccc(C)cc2C)c1 (stereo not given) | 0.368%
25 | CCOC(=O)c1ccc(NP(C)(=O)Oc2cc(C)cc(C)c2)cc1 (stereo not given) | 0.633%
26 | O=C(OC1CN2CCC1CC2)c1ccc(Cl)cc1 (stereo not given) | 3.36%
27 | COc1cc(C(=O)NCC2(N3CCOCC3)CCCCC2)cc(Cl)c1OC(C)C | -7.85%
28 | O=[As](O)(O)c1cccnc1 | 4.31%
29 | COc1ccccc1OP(C)(=O)Nc1cccc(Br)c1 (stereo not given) | 0.502%
30 | CS(=O)(=O)c1ccc(Cl)c(NC(=O)COC(=O)C(O)(c2ccccc2)c2ccccc2)c1 | 1.85%
31 | N#CCCN(C(=O)COC(=O)C(O)(c1ccccc1)c1ccccc1)c1ccc(F)cc1 | -1.51%
32 | CN(C(=O)Cc1ccccc1)[C@@H]1CC[C@]2(CCCO2)C[C@H]1N1CCCC1 | 3.83%
33 | CCOP1(=S)c2c(C)nn(CCC#N)c2N=C(c2ccc(F)cc2)N1C (stereo not given) | 1.33%
34 | CN(C)C(=O)c1cc([N+](=O)[O-])cc2c1-c1c(cc([N+](=O)[O-])cc1[N+](=O)[O-])C2=O | -6.81%
35 | O=[N+]([O-])c1ccc2c(c1)nnn2O | 2.89%
36 | CN(C(=O)Cc1ccc(Cl)c(Cl)c1)[C@H]1CC[C@@]2(CCCO2)C[C@@H]1N1CCCC1 | 7.13%
37 | CC1=NCCc2c1[nH]c1ccccc21.O=[N+]([O-])c1cc([N+](=O)[O-])c(O)c([N+](=O)[O-])c1 | 5.82%
38 | NC(=O)Nc1ccc([As](=O)(O)O)cc1 | 1.48%
39 | Nc1ccccc1[As](=O)(O)c1ccccc1 | 1.7%
40 | O=C(O)COc1ccc([As](=O)(O)O)cc1[N+](=O)[O-] | 0.257%
41 | CCOP1(=S)c2c(C)nn(CCC#N)c2N=C(c2ccccc2F)N1C (stereo not given) | -4.91%
42 | O=C(O)c1cccc(Nc2c([N+](=O)[O-])cc([N+](=O)[O-])cc2[N+](=O)[O-])c1 | -3.1%
43 | O=P(Nc1nccs1)(c1ccccc1)c1nc2ccccc2s1 (stereo not given) | 2.82%
44 | O=P(Nc1nccs1)(Oc1ccccc1)Oc1ccccc1 | -1.65%

Row | Compound | RFP signal change
45 | CS(=O)(=O)c1cc([N+](=O)[O-])c2no[n+]([O-])c2c1 | 4.55%
46 | Nc1cccc([As](=O)(O)c2ccccc2)c1 | 3.74%
47 | CP(=O)(Nc1ccc(SC(F)(F)F)cc1)Oc1ccccc1 (stereo not given) | -0.751%
48 | CCCOc1ccc(NP(C)(=O)Oc2ccc(Cl)cc2)cc1 (stereo not given) | 1.38%
49 | O=P1(Nc2ccc(Br)cn2)COc2ccccc2OC1 | -1.01%
50 | NS(=O)(=O)c1cccc(NC(=O)COC(=O)C(O)(c2ccccc2)c2ccccc2)c1 | -0.782%
51 | Cc1ccc(OCC(=O)OC2CN3CCC2CC3)cc1 (stereo not given) | 5.43%
52 | O=[As](O)(c1cccs1)c1cccs1 | 2.23%
53 | COc1ccc(-c2ccccn2)cc1.O=[N+]([O-])c1cc([N+](=O)[O-])c(O)c([N+](=O)[O-])c1 | 6.75%
54 | O=P1(Nc2ncccn2)COc2ccccc2OC1 | 6.37%
55 | COc1ccccc1OP(C)(=O)Nc1c(C)cccc1C (stereo not given) | -1.15%
56 | CN1CCCCC1COC(=O)C1(O)c2ccccc2CCc2ccccc21 (stereo not given) | -8.49%
57 | O=[N+]([O-])c1cc([N+](=O)[O-])c(Nc2nnnn2CCO)c([N+](=O)[O-])c1 | 0.64%
58 | CN(C)C1(CNC(=O)c2ccc(S(C)(=O)=O)cc2)CCCCC1 | 5.98%
59 | CC1=C2N=C(C=C3N=C(C(C)=C4[N-][C@@](C)([C@@H]5N=C1[C@](C)(CCC(=O)NC[C@@H](C)OP(=O)([O-])O[C@H]1[C@@H](O)[C@@H](n6cnc7cc(C)c(C)cc76)O[C@@H]1CO)[C@H]5CC(N)=O)[C@@](C)(CC(N)=O)[C@@H]4CCC(N)=O)[C@@](C)(CC(N)=O)[C@@H]3CCC(N)=O)C(C)(C)[C@@H]2CCC(N)=O.[C-]#N.[Co+3] | 4.89%
60 | CCOC(=O)C(CC)C1=NC(C)(C)Cc2ccccc21.O=[N+]([O-])c1cc([N+](=O)[O-])c(O)c([N+](=O)[O-])c1 (stereo not given) | 1.75%
61 | O=C(/C=C/c1ccccc1)OC1CN2CCC1CC2 (stereo not given) | -1.54%
62 | CCCC1OP(=O)(Nc2ccccc2)OCC1CC (stereo not given) | 3.52%
63 | Cc1nn(-c2ccccc2)c2c1P(=O)(N1CCOCC1)N(C)C(c1ccccc1)=N2 (stereo not given) | 2.29%
64 | CC1CCC(C(C)C)C(OP(=O)(Nc2ccccn2)c2ccccc2)C1 (stereo not given) | -11.2%
65 | Cc1ccc(C(=O)OC2CN3CCC2CC3)cc1 (stereo not given) | 2.79%
66 | COc1cc(C2NCCC3(OCCO3)C2(C)C)cc(OC)c1OC.O=[N+]([O-])c1cc([N+](=O)[O-])c(O)c([N+](=O)[O-])c1 (stereo not given) | 1.43%

Row | Compound | RFP signal change
67 | CC(C)/C=N\N=C(\N)N[N+](=O)[O-] | -0.153%
68 | CN(C(=O)Cc1ccc(Cl)c(Cl)c1)[C@@H]1CCCC[C@H]1N1CCCC1 | 3.11%
69 | Cc1ccc(S(=O)(=O)N(CCCN)CCCc2c(C)nc(N)[nH]c2=O)cc1.O=[N+]([O-])c1cc([N+](=O)[O-])c(O)c([N+](=O)[O-])c1 | 4.23%
70 | CC1(CBr)Cn2c(nc3ccccc3c2=O)S1 (stereo not given) | 3.47%
71 | Cc1nc2ccc3ccccc3c2s1.O=[N+]([O-])c1cc([N+](=O)[O-])c(O)c([N+](=O)[O-])c1 | 6.74%
72 | O=[N+]([O-])c1cc([N+](=O)[O-])c(-c2cnn(-c3ccccc3)c2)c([N+](=O)[O-])c1 | -12.8%
73 | COc1ccccc1CNC(=O)COC(=O)C(O)(c1ccccc1)c1ccccc1 | -1.35%
74 | CN(Cc1cccnc1)C(=O)COc1ccc(Cl)c(Cl)c1.O=[N+]([O-])c1cc([N+](=O)[O-])c(O)c([N+](=O)[O-])c1 | 5.74%
75 | O=P1(N(CCCl)CCCl)NCCC(C(F)(F)F)O1 (stereo not given) | 4.42%
76 | Clc1n[nH]nc1-c1nn[nH][15n]1 | 2.68%
77 | CC(C)(C)C(=O)NC(Sc1ncccn1)C(Cl)(Cl)Cl (stereo not given) | 4.06%
78 | O=C(O)C(O)c1ccc(N(CCCl)CCCl)cc1.c1ccncc1 (stereo not given) | 4.98%
79 | O=P1(Nc2ccccn2)COc2ccccc2OC1 | -0.902%
80 | CCC1=CC2Cc3nc4ccc(Cl)cc4c(N)c3C(C1)C2 (stereo not given) | -9.68%
81 | CCOP(=O)(NC(=NC(C)c1ccccc1)NC(C)c1ccccc1)OCC (stereo not given) | 2.18%
82 | Nc1ccc(CCCCOc2ccccc2)cc1.O=[N+]([O-])c1cc([N+](=O)[O-])c(O)c([N+](=O)[O-])c1 | -10.1%
83 | O=[N+]([O-])c1cc([N+](=O)[O-])c(-n2nnc3ccccc32)c([N+](=O)[O-])c1 | 7.96%
84 | CN(CCCl)Cc1cc(Cl)c(NC2=NCCN2)c(Cl)c1 | 4.96%
85 | CCOP(=O)(Nc1ccc(C)cn1)OCC | -0.475%
